Source: patent US20250296949A1, “HIGH PURITY NON-ANIMAL DERIVED UDCA” (priority 2021, published 2025)
At least one compound was matched to its structure with a doubt left.

What was measured:
[1] = Solid form stability at 40° C. and 75% RH; assay type: physicochemical; conditions: XRPD pattern found after storage at 40° C. and 75% RH
[2] = One-week form stability in solvents; assay type: physicochemical

CC(C)NC(C)C.C[C@H](CCC(=O)O)[C@H]1CC[C@H]2[C@@H]3C(=O)C[C@@H]4CC(=O)CC[C@]4(C)[C@H]3CC[C@]12C [Diisopropylamine salt, diisopropylamine salt of 3,7-DKCA]
10-A: Stability at 40° C. and 75% RH [1] | One-week form stability in solvents, 2-MeTHF ([2]; XRPD pattern after one week in 2-MeTHF) | One-week form stability in solvents, EtOAc ([2]; XRPD pattern after one week in EtOAc)
